According to PubChem BioAssay AID1439 (NMMLSC, 2008):
In all, about 220,000 compounds went through this assay and about 770 (0.35%) were called active. This list was built around the results that the source calls inconclusive (neither active nor inactive); the mix of calls is not that of the screen. Cut-off read from the data, not from the text of the source: active = binding response below about 49% or above about 150%; inconclusive = no clear call, values can overlap the other calls; inactive = in between.

Protein sequences, listed by entry. Tags and fused reporters are not part of them.
UniProt P09471, whole entry, looked up: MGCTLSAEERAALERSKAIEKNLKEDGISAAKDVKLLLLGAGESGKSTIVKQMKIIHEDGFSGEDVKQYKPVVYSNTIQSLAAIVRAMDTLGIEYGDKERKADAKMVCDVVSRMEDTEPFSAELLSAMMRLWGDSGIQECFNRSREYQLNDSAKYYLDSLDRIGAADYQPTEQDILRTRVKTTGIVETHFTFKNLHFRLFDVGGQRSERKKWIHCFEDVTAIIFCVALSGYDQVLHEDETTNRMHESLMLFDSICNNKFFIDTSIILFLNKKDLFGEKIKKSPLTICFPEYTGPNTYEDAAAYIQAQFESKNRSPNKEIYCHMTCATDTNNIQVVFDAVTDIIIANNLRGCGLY

What follows are compounds tested against Guanine nucleotide-binding protein G(o) subunit alpha (Homo sapiens) (UniProt P09471) (assay: RGS7-Galphao binding modulators, primary screen, biochemical, multiplexed bead flow cytometry (AID 1439;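 note: fluorescent Galphao held in activated GDP-AlF4 state binding bead-coupled RGS7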)). Details: at 10 µM, actives lie on both sides.

Structure (SMILES)	binding response (% of control)
O=C(NC1CCCCCC1)C1Cc2ccccc2CN1C(=O)c1ccco1 (stereo not given)	inconclusive: 90.1%
Cc1onc(-c2ccccc2Cl)c1C(=O)OCC(=O)Nc1ccc2c(c1)OCO2	inactive: 105%
Cc1ccc(NC(=O)N2CCCCC2)cc1[N+](=O)[O-]	inconclusive: 122%
Cc1cc(NC(=O)CSc2nc(-c3ccc(F)cc3)cs2)no1	inactive: 85.4%
CC(C)n1nc(C(=O)N2CCN(S(=O)(=O)c3cccs3)CC2)c2ccccc2c1=O	inconclusive: 103%
Cc1c(-n2c(SCC(=O)O)nnc2-c2ccccc2Br)c(=O)n(-c2ccccc2)n1C	inconclusive: 86.1%
COC(=O)C1CSC(C(=O)OC)N1C(=O)CN1CCN(c2ccccc2)CC1 (stereo not given)	inactive: 104%
CCc1ccc2oc(C(=O)Nc3ccc(S(N)(=O)=O)cc3)c(C)c2c1	inconclusive: 117%
NC(=O)C1=C[C@H](C2CCCCC2)C[C@H](OCc2ccc(CO)cc2)O1	inactive: 108%
O=C(NCCc1ccncc1)Nc1cccc(Cl)c1	inactive: 83.6%
CCC(=O)N1CCc2cc(S(=O)(=O)CCC(=O)Nc3cccc(C)n3)ccc21	inconclusive: 87.7%
Cc1cc(Nc2ccc(C)c(Cl)c2)nc(N2CCOCC2)n1	inconclusive: 63.1%
COc1ccc(OCC(O)CNC(=O)Nc2cccc3ccccc23)cc1 (stereo not given)	inconclusive: 114%
COc1ccc2[nH]c(=O)c(CN(Cc3cccnc3)Cc3nnnn3CC3CCCO3)cc2c1 (stereo not given)	inconclusive: 98.4%
FC(F)(F)c1ccc(Cl)c(-n2c(Cc3cccs3)n[nH]c2=S)c1	inconclusive: 77%
COc1ccc(CCN2C(=O)c3ccccc3C2(O)c2ncc[nH]2)cc1OC (stereo not given)	inactive: 95.3%
OC(COc1cccc2ccccc12)CN1CCN(c2cccc(Cl)c2)CC1 (stereo not given)	inconclusive: 126%
COc1ccc(/C(O)=C2/C(=O)C(=O)N(c3ccccn3)C2c2ccc(OC)c(OC)c2)cc1 (stereo not given)	inconclusive: 41.8%
Cn1nc2sc3ccccc3n2c(=O)c1=O	inconclusive: -2.35%
O=C(COC(=O)c1n[nH]c2ccccc12)Nc1ccccc1	inconclusive: 76.1%
CCNc1nc(NCC)nc(OCCNS(=O)(=O)c2ccccc2)n1	inconclusive: 120%
CCN1CCN(CCCN(Cc2ccco2)C(=S)Nc2ccc(Cl)cc2)CC1	inconclusive: 91.2%
O=C1COc2ccc(C(=O)COC(=O)c3cnc(Cl)c(Cl)c3)cc2N1	inconclusive: 95.8%

In another format: entries from further up
Structure (SMILES) | binding response (% of control)
OC(COc1cccc2ccccc12)CN1CCN(c2cccc(Cl)c2)CC1 (stereo not given) | inconclusive: 126%
COc1ccc(/C(O)=C2/C(=O)C(=O)N(c3ccccn3)C2c2ccc(OC)c(OC)c2)cc1 (stereo not given) | inconclusive: 41.8%
Cn1nc2sc3ccccc3n2c(=O)c1=O | inconclusive: -2.35%
O=C(COC(=O)c1n[nH]c2ccccc12)Nc1ccccc1 | inconclusive: 76.1%

(further entries)

Structure (SMILES)	binding response (% of control)
O=c1c2cc(NC(=S)NCCN3CCCCCC3)ccc2nc2n1CCCCC2	inconclusive: 87.3%
Oc1ccc(Br)cc1-c1cc(-c2ccccc2Cl)[nH]n1	inconclusive: 110%
CCCCN(C(=O)c1ccc(Cl)c(S(=O)(=O)N2CCOCC2)c1)c1c(N)n(CCC)c(=O)[nH]c1=O	inconclusive: 125%
CC(=O)C1=C(O)C(=O)OC1c1ccc(Cl)cc1 (stereo not given)	inconclusive: 92.3%
CN(CCc1ccccn1)C(=O)CCC1CCCN(Cc2ccccc2OC(F)F)C1 (stereo not given)	inactive: 102%
Cc1ccc(C(=O)NCC(=O)NC2CCCC2)cc1	inconclusive: 104%
COc1ccc(N=Cc2c(O)c3ccccc3n2C(C)=O)cc1	inconclusive: 171%
COc1ccc(/C=N/n2cnn(Cc3ccccc3Cl)c2=S)cc1OC	inconclusive: 123%
Cn1ncc2c(Sc3ccc(Cl)cc3)ncnc21	inconclusive: 93.2%
Oc1cccc(NC(=S)N=Nc2c(O)[nH]c3ccc(Br)cc23)c1	inconclusive: 80.3%
COc1cccc(C(=O)Oc2c(Br)cc(Br)cc2/C=N/NC(=O)c2cc(C)[nH]n2)c1	inactive: 96.2%
COc1ccc(C(=O)CC(=O)C(=O)Nc2cc(Cl)c(OC)cc2OC)cc1	inconclusive: 92.8%
CCCCCNC(=O)C1CCC(Cn2c(=S)[nH]c3ccccc3c2=O)CC1 (stereo not given)	inactive: 103%
CCOc1cc(/C=N/NC(=O)CCn2nnc3ccccc32)ccc1O	inconclusive: 146%
Cc1ccc(NC(=O)CSc2nc(=O)cc(N)n2CCc2ccccc2)cc1	inconclusive: 98.9%
CC(=O)N/N=C(\C)CCc1ccccc1	inconclusive: 91.3%
CCCCC(=O)NC(=O)NC(c1ccccc1)c1ccccc1	inconclusive: 108%
COCCCn1c(=N)c(C(=O)NCC2CCCO2)cc2c(=O)n3ccccc3nc21 (stereo not given)	inactive: 98.2%
CN(C)S(=O)(=O)c1cccc(NC(=S)Nc2ccc3cn[nH]c3c2)c1	inconclusive: 89.4%
Cc1ccc2[nH]c(=O)c(COC(=O)C3CCCCC3)cc2c1	inconclusive: 103%
COc1ccc(NC(=O)c2ccc(S(=O)(=O)N(C)c3ccccc3)cc2)cn1	inconclusive: 100%
Cc1nn(-c2ccccc2)c(C)c1/C=C/C(=O)OCC(=O)N(C)C1CCS(=O)(=O)C1 (stereo not given)	inconclusive: 108%
COC(=O)c1ccc(/C=N/NC(=S)NC(C)C)cc1	inconclusive: 73.7%

Structure (SMILES)	binding response (% of control)
Fc1ccc(CNC(=S)NCc2ccc(F)cc2)cc1	inconclusive: 98%
CC(C)(C)c1ccc(S(=O)(=O)N2CCC(O)(c3ccc(Cl)cc3)CC2)cc1	inconclusive: 156%
CC(C)COc1ccc(C(=O)Nc2ccc([N+](=O)[O-])cc2)cc1	inconclusive: 121%
CC(=O)SC1CC(=O)N(c2ccc(C(C)(C)C)cc2)C1=O (stereo not given)	inconclusive: 86.8%
Cc1nc(CC(=O)N/N=C/c2ccc(OCC(=O)O)cc2)cs1	inconclusive: 81.9%
CCc1cccc(NC(=O)CN(C)S(=O)(=O)c2cccc3cccnc23)c1	inconclusive: 93.5%
CC(=O)c1ccc(N2CCN(C(=O)c3cc4c(s3)CCCC4)CC2)cc1	inconclusive: 85.2%
CCc1cc2c(C)cc(=O)oc2cc1Oc1ncccc1[N+](=O)[O-]	inconclusive: 105%
CCOC(=O)CNC(=O)CNC(=O)c1ccc(OC(C)C)cc1	inconclusive: -565%
FC(F)C(F)(F)C(F)(F)C(F)(F)c1cc(-c2ccccc2)n[nH]1	inactive: 95.7%
O=C1Nc2ccc(Cl)cc2[C@@](C#CC2CC2)(C(F)(F)F)O1	inactive: 101%
COc1cc(SC)ccc1C(=O)Nc1ccc2c(c1)OCO2	inconclusive: 89.7%
CN1CCN(C(=S)c2ccc(-c3cccc([N+](=O)[O-])c3)o2)CC1	inconclusive: 113%
CC1CCN(C2=C(NS(=O)(=O)c3ccccc3)C(=O)c3ccccc3C2=O)CC1	inconclusive: 116%
Cc1ccc(-c2nc(C(F)(F)F)cc(=O)[nH]2)cc1	inconclusive: 105%
Cn1c(=O)c(=O)n(C)c2cc(S(=O)(=O)NCCOc3ccccc3)ccc21	inactive: 91.2%
NC(=O)COC(=O)[C@@H]1CC(O)CN1S(=O)(=O)c1ccc2c(c1)OCCO2 (stereo not given in full)	inconclusive: 104%
Fc1ccc(-c2noc(-c3ccc4c(c3)CCO4)n2)cc1	inconclusive: 96.7%
CN(C)/C=C/C(=O)c1ccc(Oc2ccccc2)cc1	inconclusive: 102%
COCCCNC(=S)N/N=C/c1cccc(OC)c1O	inconclusive: 132%
O=C(N/N=C/c1cccc(C(F)(F)F)c1)c1ccccc1O	inconclusive: 107%
COc1ccccc1Nc1nccc(N(C)C)c1C#N	inactive: 104%
COc1cccc(NC(=O)CSc2nc3c(oc4ccccc43)c(=O)[nH]2)c1	inactive: 97.8%

Structure (SMILES)	binding response (% of control)
CC1(C)CC(C2N3CC4(C)CN2CC(C)(C3)C4=O)CCO1 (stereo not given)	inactive: 119%
O=C(Nc1ccc(-c2csc(Nc3cccc(C(F)(F)F)c3)n2)cc1)c1cc([N+](=O)[O-])cc(C(F)(F)F)c1	inconclusive: 90.2%
CCOC(=O)C(=O)Nc1cc(C)nn1-c1nc2ccccc2[nH]1	inconclusive: 73.1%
CCN(CC)S(=O)(=O)c1ccc(N(C)C)c(NC(=O)CC(NC(C)=O)c2ccccc2)c1 (stereo not given)	inconclusive: 106%
Clc1ccc(SCCCN2CCCCC2)cc1	inconclusive: 99.7%
CCN(CC)CCNCc1cc(Cl)ccc1OCc1ccccc1F	inconclusive: 91.6%
Cc1onc(-c2c(Cl)cccc2Cl)c1CO/N=C(\C#N)c1c(Cl)cccc1Cl	inconclusive: 72.6%
CC1CCCN(Cc2c(O)ccc3c2O/C(=C\c2ccco2)C3=O)C1 (stereo not given)	inactive: 99.5%
C[C@H](N)C(=O)OCc1ccc([N+](=O)[O-])cc1	inconclusive: 24.4%
CC(C)Oc1ccccc1/C=N/NC(=O)c1ccccc1Cl	inconclusive: 83.5%
CCN1CCc2c(sc(NC(=S)NC(=O)c3ccc(Cl)cc3)c2C(N)=O)C1	inconclusive: 116%
CC(O)c1nc2ccc(C(=O)O)cc2[nH]1 (stereo not given)	inconclusive: 72.7%
COc1ccc2[nH]c3c(=O)n(Cc4ccc(C(=O)N5CCC(C(N)=O)CC5)cc4)c(=S)[nH]c3c2c1	inconclusive: 105%
Cc1ccccc1N1CC2=C(C1=O)C(c1ccccc1)NC(=O)N2C (stereo not given)	inconclusive: 72.8%
CC(C)(C)C(=O)COC(=O)c1cc(-c2cccnc2)nc2ccccc12	inconclusive: 132%
Cc1cc(C)c2ccc(Cl)cc2n1	inconclusive: 190%
COc1ccccc1NC(=O)O/N=C(\N)c1ccccc1	inconclusive: 86.2%
CNC(=O)C1=C(C)Nc2nc3ccccc3n2C1c1ccc(F)cc1 (stereo not given)	inconclusive: 85.4%
COc1ccc(NC(=O)CSc2ncnc3[nH]ncc23)cc1	inconclusive: 54.1%
CC(C)CCn1c(NCCc2ccccc2)nc2c1c(=O)n(C)c(=O)n2C	inconclusive: 93.7%
COc1ccccc1/C=C/C=N/n1c(-c2ccc(Cl)cc2Cl)n[nH]c1=S	inconclusive: 117%
